In PMC4538849:
Results are given in words; binding and its absence hold for the method and conditions named. For some assays here: In cells and extracts the contact can be indirect. Some entries that bind do so weakly or less than the wild type. For some assays here: Sequences can lack the tags named with a protein.

B1: Cenp-F fragment (amino acids 2375–3144) (domain or fragment, UniProt P49454 2375-3114)
chain: GMTQSLRGLELDVVTIRSEKENLTNELQKEQERISELEIINSSFENILQEKEQEKVQMKEKSSTAMEMLQTQLKELNERVAALHNDQEACKAKEQNLSSQVECLELEKAQLLQGLDEAKNNYIVLQSSVNGLIQEVEDGKQKLEKKDEEISRLKNQIQDQEQLVSKLSQVEGEHQLWKEQNLELRNLTVELEQKIQVLQSKNASLQDTLEVLQSSYKNLENELELTKMDKMSFVEKVNKMTAKETELQREMHEMAQKTAELQEELSGEKNRLAGELQLLLEEIKSSKDQLKELTLENSELKKSLDCMHKDQVEKEGKVREEIAEYQLRLHEAEKKHQALLLDTNKQYEVEIQTYREKLTSKEECLSSQKLEIDLLKSSKEELNNSLKATTQILEELKKTKMDNLKYVNQLKKENERAQGKMKLLIKSCKQLEEEKEILQKELSQLQAAQEKQKTGTVMDTKVDELTTEIKELKETLEEKTKEADEYLDKYCSLLISHEKLEKAKEMLETQVAHLCSQQSKQDSRGSPLLGPVVPGPSPIPSVTEKRLSSGQNKASGKRQRSSGIWENGRGPTPATPESFSKKSKKAVMSGIHPAEDTEGTEFEPEGLPEVVKKGFADIPTGKTSPYILRRTTMATRTSPRLAAQKLALSPLSLGKENLAESSKPTAGGSRSQKVKVAQRSPVDSGTILREPTTKSVPVNNLPERSPTDSPREGLRVKRGRLVPSPKAGLESNGSENCKVQ
B2: Miro1 (without transmembrane domain, amino acids 1–594) (domain or fragment, UniProt Q8IXI2 1-594)
chain: MKKDVRILLVGEPRVGKTSLIMSLVSEEFPEEVPPRAEEITIPADVTPERVPTHIVDYSEAEQSDEQLHQEISQANVICIVYAVNNKHSIDKVTSRWIPLINERTDKDSRLPLILVGNKSDLVEYSSMETILPIMNQYTEIETCVECSAKNLKNISELFYYAQKAVLHPTGPLYCPEEKEMKPACIKALTRIFKISDQDNDGTLNDAELNFFQRICFNTPLAPQALEDVKNVVRKHISDGVADSGLTLKGFLFLHTLFIQRGRHETTWTVLRRFGYDDDLDLTPEYLFPLLKIPPDCTTELNHHAYLFLQSTFDKHDLDRDCALSPDELKDLFKVFPYIPWGPDVNNTVCTNERGWITYQGFLSQWTLTTYLDVQRCLEYLGYLGYSILTEQESQASAVTVTRDKKIDLQKKQTQRNVFRCNVIGVKNCGKSGVLQALLGRNLMRQKKIREDHKSYYAINTVYVYGQEKYLLLHDISESEFLTEAEIICDVVCLVYDVSNPKSFEYCARIFKQHFMDSRIPCLIVAAKSDLHEVKQEYSISPTDFCRKHKMPPPQAFTCNTADAPSKDIFVKLTTMAMYPHVTQADLKSSTFWL

Experiments:
[1] = molecular target: wild-type (wt) Miro1 (human) (UniProt Q8IXI2); experiment: co-IP; transiently transfected Cenp-F fragment and Miro1; the text calls it a pull-down; methods not told
[2] = molecular target: T1, LexA-fused C-terminal fragment of Cenp-F (amino acids 2977–3020) (UniProt P49454); experiment: two-hybrid; LexA-Cenp-F bait (pEG202), Miro prey (pJG4-5), yeast EGY48 with lacZ reporter pSH18-34, galactose medium, X-gal overlay
T1 sequence: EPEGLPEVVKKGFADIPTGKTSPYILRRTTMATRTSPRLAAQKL

| Binder | binding [1] | binding [2] |
| --- | --- | --- |
| B1 | binds |  |
| B2 |  | binds |
